Measured values published in article PMC7819943, “Rice protein-binding microarrays: a tool to detect cis-acting elements near promoter regions in rice”.
The other results are listed elsewhere or left out.

target: T1, OsSMF1 (Oryza sativa, UniProt Q6ZLB0 1-436); test: protein-binding microarray (RPBM); PBS, 2% BSA, 51.3 ng/ul salmon testes DNA, 50 uM zinc acetate, 200 nM TF, 25 C, 1 h; high values mean tight binding; conditions: protein: recombinant; tags: N-terminal polyhistidine and DsRed monomer fusion (pET32a); chain copies: 2; label: CyDye5-dUTP incorporated in the synthesized complementary strand; 3' TTTTT single-stranded linker to array surface; dsDNA, one strand shown
T1 sequence: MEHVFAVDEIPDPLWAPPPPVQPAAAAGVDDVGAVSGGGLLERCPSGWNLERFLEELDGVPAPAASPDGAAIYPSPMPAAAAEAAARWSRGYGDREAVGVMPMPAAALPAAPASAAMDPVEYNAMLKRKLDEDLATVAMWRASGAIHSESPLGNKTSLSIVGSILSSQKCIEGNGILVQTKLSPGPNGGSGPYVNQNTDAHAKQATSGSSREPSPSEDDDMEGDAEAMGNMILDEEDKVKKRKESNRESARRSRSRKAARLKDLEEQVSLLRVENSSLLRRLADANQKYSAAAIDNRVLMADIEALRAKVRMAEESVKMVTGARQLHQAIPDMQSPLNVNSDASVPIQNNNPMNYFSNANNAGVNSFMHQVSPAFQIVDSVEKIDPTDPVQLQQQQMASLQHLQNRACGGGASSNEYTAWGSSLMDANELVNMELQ
Outline: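 Transcription factors were made in E. coli BL21-CodonPlus as N-terminal fusions to a polyhistidine tag and DsRed, then purified on Ni–NTA. After primer extension with Cy5-dUTP and blocking with 2% BSA, a custom Agilent array was exposed for 1 h at 25 °C to 200 nM protein in PBS, 2% BSA, salmon testes DNA and 50 µM zinc acetate. Washed arrays were scanned on an Axon 4000B, and the binding signal is per-feature fluorescence intensity in arbitrary units.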

**Q.** With “GGTCGATCCGTAGTAGGCGCTTGGCCGGCCATGACGCACGCGGAGTCACCTAGTGCAG” as the sequence, how does the binding signal read?
**A.** 4540 fluorescence intensity (a.u.)

**Q.** With “ATCTTAGCGTGGATGCGTGATTAACACTGAGGATGTCGGACGGAGTCACCTAGTGCAG” as the sequence, how does the binding signal read?
**A.** 3410 fluorescence intensity (a.u.)

**Q.** “GGAGGGGCAGCTTGGTCATTCCACGTGGGAAGACTCGCCCCGGAGTCACCTAGTGCAG” was tested. Which binding signal did it give?
**A.** 9300 fluorescence intensity (a.u.)

**Q.** Which binding signal does the source give for “TATAGAGAGAGGGACCTGAGATGTTGCTTGTGAGTTTCAGCGGAGTCACCTAGTGCAG” here?
**A.** 3380 fluorescence intensity (a.u.)

**Q.** Which binding signal does the source give for “CTACCACCTGACACGCGTCCACTCTTATACTAACTAGTTTCGGAGTCACCTAGTGCAG” here?
**A.** 6370 fluorescence intensity (a.u.)

**Q.** How did the binding signal turn out when “AGGAATTTCCGTCATCCTAGCGGTGTTCGGTGAGAACTTGCGGAGTCACCTAGTGCAG” was run?
**A.** 5610 fluorescence intensity (a.u.)

**Q.** Which binding signal does the source give for “CTCGATCCGCCTCGTACGCCAGCTCGCTCGCTCGCTCCCCCGGAGTCACCTAGTGCAG” here?
**A.** 3400 fluorescence intensity (a.u.)

**Q.** Which binding signal does the source give for “ATCCACCACGCTCCCCTCCCGCGTGTCACCACGCCATTACCGGAGTCACCTAGTGCAG” here?
**A.** 3310 fluorescence intensity (a.u.)

**Q.** How did the binding signal turn out when “AATGTGTGTCCGTATATCCGATGTGACACACCAAAACTTTCGGAGTCACCTAGTGCAG” was run?
**A.** 5190 fluorescence intensity (a.u.)

**Q.** Which binding signal does the source give for “CCAGCCCATACTCACGCTCCCGGCCGGCCCATCCATGGCCCGGAGTCACCTAGTGCAG” here?
**A.** 3290 fluorescence intensity (a.u.)

**Q.** With “ATCTGCCCAAGCTCAGCTAAACATCAGCATAGGCTCCTCTCGGAGTCACCTAGTGCAG” as the sequence, how does the binding signal read?
**A.** 3990 fluorescence intensity (a.u.)

**Q.** “TACCCCATAAACTTGTATACTCATTGGCATTGCAATTAATCGGAGTCACCTAGTGCAG” was tested. Which binding signal did it give?
**A.** 5870 fluorescence intensity (a.u.)

**Q.** “GCCTTACACAATGACGAAGCAGATCACTGAAAGGTCTATGCGGAGTCACCTAGTGCAG” was tested. Which binding signal did it give?
**A.** 3650 fluorescence intensity (a.u.)

**Q.** How did the binding signal turn out when “CGCACGGTGCAGAGCTGACACGTAGATAGTCGTCGTTGTTCGGAGTCACCTAGTGCAG” was run?
**A.** 4360 fluorescence intensity (a.u.)

**Q.** Which binding signal does the source give for “CTATACTCCAGCTTGCAAACATATATGGAATCATGGATTTCGGAGTCACCTAGTGCAG” here?
**A.** 3300 fluorescence intensity (a.u.)

**Q.** “TTATCCACTGTCTTATTCTGTCCACGTCATTAAACAAAGCCGGAGTCACCTAGTGCAG” was tested. Which binding signal did it give?
**A.** 10400 fluorescence intensity (a.u.)

**Q.** How did the binding signal turn out when “CCGCCGCCACGGAGGCTTGGCGCGCTCGCCAGCGCCGGCCCGGAGTCACCTAGTGCAG” was run?
**A.** 3570 fluorescence intensity (a.u.)

**Q.** How did the binding signal turn out when “TCGTTCATAGCGCACCCCTACCGCCTCGTCACGCTGCCCCCGGAGTCACCTAGTGCAG” was run?
**A.** 7120 fluorescence intensity (a.u.)

**Q.** “ATTGTATACCTCTGCCTCTTAATACTATTTCCCAAGGACCCGGAGTCACCTAGTGCAG” was tested. Which binding signal did it give?
**A.** 3540 fluorescence intensity (a.u.)

**Q.** With “TCAAGGGTGACTCGGATCAGAGCTGGGACCCACTTTCAGTCGGAGTCACCTAGTGCAG” as the sequence, how does the binding signal read?
**A.** 6330 fluorescence intensity (a.u.)

**Q.** How did the binding signal turn out when “CCGTGTGCGTCACCGACATATGGGTCCCTTCTAGCGGTGCCGGAGTCACCTAGTGCAG” was run?
**A.** 4600 fluorescence intensity (a.u.)

**Q.** For “GCGCTGCCACGAGTGCCCGCGTCATCCCGTCCCCTCGCACCGGAGTCACCTAGTGCAG”, which binding signal is on record?
**A.** 6120 fluorescence intensity (a.u.)

**Q.** “ATTTAGCTCTGATGTGCATGCACTCTAGAAGGCCCCACAGCGGAGTCACCTAGTGCAG” was tested. Which binding signal did it give?
**A.** 3360 fluorescence intensity (a.u.)

**Q.** “GTTCCAACAAAAGACTAATTGTCTAGTCATACATTAAAGTCGGAGTCACCTAGTGCAG” was tested. Which binding signal did it give?
**A.** 3920 fluorescence intensity (a.u.)

**Q.** For “TGTGCATCGTGTCTCACTCGTTAAAATCCACGCGTATTAACGGAGTCACCTAGTGCAG”, which binding signal is on record?
**A.** 3750 fluorescence intensity (a.u.)

**Q.** With “GGTTGACCGTAGTCAACTCGCCACGTTGACTAGAACCGAGCGGAGTCACCTAGTGCAG” as the sequence, how does the binding signal read?
**A.** 3900 fluorescence intensity (a.u.)

**Q.** With “GTTTAAATATAATGATTGTCAGTGGATGATAATGTGTCAGCGGAGTCACCTAGTGCAG” as the sequence, how does the binding signal read?
**A.** 3480 fluorescence intensity (a.u.)

**Q.** How did the binding signal turn out when “TGTTCATACTCCTAACAGTTGTACGTGTACCATTATCTGGCGGAGTCACCTAGTGCAG” was run?
**A.** 3180 fluorescence intensity (a.u.)

**Q.** For “CACTCTCTTTTGAGCACAGAAACAAATGCAAATGCTGTTGCGGAGTCACCTAGTGCAG”, which binding signal is on record?
**A.** 24000 fluorescence intensity (a.u.)

**Q.** “ACCAAACCAAACCAAACCAAACCAAACCGCACATGACACACGGAGTCACCTAGTGCAG” was tested. Which binding signal did it give?
**A.** 3320 fluorescence intensity (a.u.)

**Q.** Which binding signal does the source give for “AAGAGGATTCAGCAATGCTTCTCCTCAAGGCATGATGATCCGGAGTCACCTAGTGCAG” here?
**A.** 4070 fluorescence intensity (a.u.)

**Q.** For “AGTCATTTGGTACGCTGTCATGCCATGCCAGTACAACACGCGGAGTCACCTAGTGCAG”, which binding signal is on record?
**A.** 4950 fluorescence intensity (a.u.)

**Q.** With “TGGTTCATGGCCACACCACACTTTTGACTGCCACAGTGTGCGGAGTCACCTAGTGCAG” as the sequence, how does the binding signal read?
**A.** 3140 fluorescence intensity (a.u.)

**Q.** “TAGGATTGATCTCATCTCCCCATAGCGACGCGTGTGCGTTCGGAGTCACCTAGTGCAG” was tested. Which binding signal did it give?
**A.** 3600 fluorescence intensity (a.u.)

**Q.** For “AGAGAGGGTAAGTAGTCACTTACACATGGAGCCCACGCTACGGAGTCACCTAGTGCAG”, which binding signal is on record?
**A.** 3520 fluorescence intensity (a.u.)

**Q.** “ACGAGATGCGCCGCCTGCCTTCCCCTCCACGCCAACGCCACGGAGTCACCTAGTGCAG” was tested. Which binding signal did it give?
**A.** 3190 fluorescence intensity (a.u.)

**Q.** With “TCTATATTCTACTCAATGCTTGGTTCTAAATTGGCCTCAACGGAGTCACCTAGTGCAG” as the sequence, how does the binding signal read?
**A.** 24700 fluorescence intensity (a.u.)

**Q.** Which binding signal does the source give for “GCGTCGCATATTTCTCCAAACCCACGCAGATCTCCGCTTTCGGAGTCACCTAGTGCAG” here?
**A.** 3150 fluorescence intensity (a.u.)

**Q.** “ATCGGTTTCTTTCCACGCTGACGCAAATCAATCGCCTCCTCGGAGTCACCTAGTGCAG” was tested. Which binding signal did it give?
**A.** 5090 fluorescence intensity (a.u.)

**Q.** “GGGAGAATATTGAGGGGAACTGTGGAGAAGTGGAGTTTTGCGGAGTCACCTAGTGCAG” was tested. Which binding signal did it give?
**A.** 3160 fluorescence intensity (a.u.)

**Q.** “GGGCCCACATGCCAGCTCCTCCATCTCTATTCCACCACGACGGAGTCACCTAGTGCAG” was tested. Which binding signal did it give?
**A.** 3770 fluorescence intensity (a.u.)

**Q.** For “CACCACTTCAACGTCGTCCATGGCTGTGTGCGCGGCCACCCGGAGTCACCTAGTGCAG”, which binding signal is on record?
**A.** 26400 fluorescence intensity (a.u.)
